Results reported in the supplement of paper PMC10849652.
The list shows a part of the results.

Chains of the proteins cited; added tags and fusions are not shown. Lines headed by an entry give the natural chain unless they say otherwise; changes in a name come on top.
UniProt Q03111: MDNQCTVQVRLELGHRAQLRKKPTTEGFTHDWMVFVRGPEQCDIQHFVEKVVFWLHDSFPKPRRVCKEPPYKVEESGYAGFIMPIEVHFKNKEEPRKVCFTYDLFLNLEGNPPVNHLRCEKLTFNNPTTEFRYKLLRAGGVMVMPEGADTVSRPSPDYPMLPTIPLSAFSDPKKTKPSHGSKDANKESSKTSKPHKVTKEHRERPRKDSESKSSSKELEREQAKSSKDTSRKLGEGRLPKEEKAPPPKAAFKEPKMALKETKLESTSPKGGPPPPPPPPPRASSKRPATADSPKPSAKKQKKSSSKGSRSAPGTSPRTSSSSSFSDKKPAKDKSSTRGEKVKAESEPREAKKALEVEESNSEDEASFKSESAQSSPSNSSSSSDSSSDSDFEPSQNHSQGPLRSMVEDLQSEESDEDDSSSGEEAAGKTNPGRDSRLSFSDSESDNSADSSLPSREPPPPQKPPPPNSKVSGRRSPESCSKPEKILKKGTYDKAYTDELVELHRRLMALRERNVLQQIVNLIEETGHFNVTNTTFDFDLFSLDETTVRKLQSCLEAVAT
UniProt O96033: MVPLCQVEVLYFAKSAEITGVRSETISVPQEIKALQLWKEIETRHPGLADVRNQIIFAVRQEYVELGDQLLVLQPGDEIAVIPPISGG
UniProt O94851, whole entry, looked up: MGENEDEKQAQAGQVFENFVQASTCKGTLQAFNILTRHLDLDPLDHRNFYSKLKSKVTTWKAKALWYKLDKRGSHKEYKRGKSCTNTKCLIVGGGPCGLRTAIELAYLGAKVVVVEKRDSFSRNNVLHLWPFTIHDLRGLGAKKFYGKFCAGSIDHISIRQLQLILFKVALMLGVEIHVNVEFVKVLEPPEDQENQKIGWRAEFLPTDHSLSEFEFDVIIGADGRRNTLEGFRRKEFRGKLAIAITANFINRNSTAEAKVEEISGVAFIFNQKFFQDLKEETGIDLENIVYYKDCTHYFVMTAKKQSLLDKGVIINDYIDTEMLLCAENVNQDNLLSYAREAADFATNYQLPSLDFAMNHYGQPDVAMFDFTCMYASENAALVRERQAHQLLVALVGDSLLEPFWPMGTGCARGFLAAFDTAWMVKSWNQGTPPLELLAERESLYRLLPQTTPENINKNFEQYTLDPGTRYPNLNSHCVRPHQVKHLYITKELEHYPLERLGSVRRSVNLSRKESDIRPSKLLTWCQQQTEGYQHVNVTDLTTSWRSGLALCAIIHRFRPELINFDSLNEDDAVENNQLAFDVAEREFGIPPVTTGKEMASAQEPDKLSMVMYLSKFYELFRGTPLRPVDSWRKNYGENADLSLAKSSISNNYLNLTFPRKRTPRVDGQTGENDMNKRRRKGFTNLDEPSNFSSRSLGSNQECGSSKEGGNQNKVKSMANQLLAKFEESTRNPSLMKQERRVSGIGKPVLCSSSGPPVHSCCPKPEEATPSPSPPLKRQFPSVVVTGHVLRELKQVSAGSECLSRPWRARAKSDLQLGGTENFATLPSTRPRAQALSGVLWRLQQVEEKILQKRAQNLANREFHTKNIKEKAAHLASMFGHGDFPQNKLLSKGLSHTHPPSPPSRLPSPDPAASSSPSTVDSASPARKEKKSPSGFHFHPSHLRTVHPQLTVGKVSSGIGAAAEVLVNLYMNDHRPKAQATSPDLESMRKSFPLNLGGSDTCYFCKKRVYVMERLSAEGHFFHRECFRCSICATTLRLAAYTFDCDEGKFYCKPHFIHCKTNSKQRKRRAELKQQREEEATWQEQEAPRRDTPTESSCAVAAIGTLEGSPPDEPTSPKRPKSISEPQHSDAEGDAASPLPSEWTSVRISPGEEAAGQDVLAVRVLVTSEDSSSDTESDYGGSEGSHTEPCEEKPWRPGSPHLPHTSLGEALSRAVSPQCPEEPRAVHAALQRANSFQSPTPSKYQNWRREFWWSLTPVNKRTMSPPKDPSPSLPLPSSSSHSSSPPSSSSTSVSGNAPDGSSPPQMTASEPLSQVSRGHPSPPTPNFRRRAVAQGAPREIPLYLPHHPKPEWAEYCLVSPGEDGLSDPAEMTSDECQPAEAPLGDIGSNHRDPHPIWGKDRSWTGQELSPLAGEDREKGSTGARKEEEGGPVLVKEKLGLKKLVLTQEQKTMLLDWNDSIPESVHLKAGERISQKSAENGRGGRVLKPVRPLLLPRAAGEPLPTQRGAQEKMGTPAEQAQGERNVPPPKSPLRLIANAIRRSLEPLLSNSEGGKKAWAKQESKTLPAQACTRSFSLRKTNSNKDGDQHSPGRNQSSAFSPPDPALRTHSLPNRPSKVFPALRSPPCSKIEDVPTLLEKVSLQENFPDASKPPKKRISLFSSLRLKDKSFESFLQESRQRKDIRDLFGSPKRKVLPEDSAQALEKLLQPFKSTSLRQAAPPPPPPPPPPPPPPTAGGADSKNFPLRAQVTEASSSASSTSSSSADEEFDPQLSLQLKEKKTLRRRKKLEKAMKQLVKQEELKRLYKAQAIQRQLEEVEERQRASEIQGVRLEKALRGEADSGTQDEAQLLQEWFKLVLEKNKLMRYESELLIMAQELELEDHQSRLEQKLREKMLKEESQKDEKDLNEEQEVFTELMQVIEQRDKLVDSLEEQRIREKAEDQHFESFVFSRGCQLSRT
UniProt Q8NB16: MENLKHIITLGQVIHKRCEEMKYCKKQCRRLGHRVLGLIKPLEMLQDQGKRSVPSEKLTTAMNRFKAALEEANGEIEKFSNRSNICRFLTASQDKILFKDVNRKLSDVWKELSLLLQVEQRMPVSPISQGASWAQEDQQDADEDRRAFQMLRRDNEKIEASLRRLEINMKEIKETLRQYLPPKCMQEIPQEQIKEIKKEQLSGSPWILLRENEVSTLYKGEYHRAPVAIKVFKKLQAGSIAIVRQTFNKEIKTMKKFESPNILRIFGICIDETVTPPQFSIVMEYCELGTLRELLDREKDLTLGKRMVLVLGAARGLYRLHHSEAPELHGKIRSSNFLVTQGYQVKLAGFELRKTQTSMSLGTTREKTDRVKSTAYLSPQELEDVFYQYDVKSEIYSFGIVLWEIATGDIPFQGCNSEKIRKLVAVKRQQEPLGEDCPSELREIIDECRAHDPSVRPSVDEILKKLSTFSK
UniProt Q96EN8: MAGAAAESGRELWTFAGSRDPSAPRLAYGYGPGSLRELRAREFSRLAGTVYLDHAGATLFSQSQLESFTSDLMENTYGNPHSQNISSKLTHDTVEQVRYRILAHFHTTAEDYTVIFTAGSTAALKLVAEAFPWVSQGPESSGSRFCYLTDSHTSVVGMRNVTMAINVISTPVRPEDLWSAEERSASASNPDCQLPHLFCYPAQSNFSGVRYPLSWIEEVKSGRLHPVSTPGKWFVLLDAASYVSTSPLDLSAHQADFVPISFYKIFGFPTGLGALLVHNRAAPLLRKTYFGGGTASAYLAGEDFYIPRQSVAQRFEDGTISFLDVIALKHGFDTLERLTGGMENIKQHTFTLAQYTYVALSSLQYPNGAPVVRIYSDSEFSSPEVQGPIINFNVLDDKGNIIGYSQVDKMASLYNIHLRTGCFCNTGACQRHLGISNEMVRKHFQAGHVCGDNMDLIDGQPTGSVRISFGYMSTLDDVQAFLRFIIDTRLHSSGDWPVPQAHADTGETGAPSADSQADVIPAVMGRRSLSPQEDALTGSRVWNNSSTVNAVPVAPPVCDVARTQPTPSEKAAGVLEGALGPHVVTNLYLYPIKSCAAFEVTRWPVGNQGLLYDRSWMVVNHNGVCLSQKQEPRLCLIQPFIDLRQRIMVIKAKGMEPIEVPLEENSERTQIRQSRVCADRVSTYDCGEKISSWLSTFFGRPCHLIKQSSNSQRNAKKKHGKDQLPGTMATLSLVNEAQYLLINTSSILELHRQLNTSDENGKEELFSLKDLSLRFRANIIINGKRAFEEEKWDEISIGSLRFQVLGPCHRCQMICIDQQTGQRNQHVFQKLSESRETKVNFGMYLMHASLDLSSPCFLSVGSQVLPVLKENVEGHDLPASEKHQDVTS
UniProt Q9BU76: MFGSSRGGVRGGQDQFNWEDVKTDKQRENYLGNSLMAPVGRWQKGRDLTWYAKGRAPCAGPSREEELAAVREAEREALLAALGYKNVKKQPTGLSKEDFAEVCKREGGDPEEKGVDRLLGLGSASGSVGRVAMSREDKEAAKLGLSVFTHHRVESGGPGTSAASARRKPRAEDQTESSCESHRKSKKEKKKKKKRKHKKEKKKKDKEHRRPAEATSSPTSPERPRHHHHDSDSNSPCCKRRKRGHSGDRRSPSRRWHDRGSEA
UniProt O96007: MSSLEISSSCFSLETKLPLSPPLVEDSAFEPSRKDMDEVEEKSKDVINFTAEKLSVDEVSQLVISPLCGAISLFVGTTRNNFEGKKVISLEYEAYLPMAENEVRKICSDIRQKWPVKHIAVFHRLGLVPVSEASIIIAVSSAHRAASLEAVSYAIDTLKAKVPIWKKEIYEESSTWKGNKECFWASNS
UniProt Q14165: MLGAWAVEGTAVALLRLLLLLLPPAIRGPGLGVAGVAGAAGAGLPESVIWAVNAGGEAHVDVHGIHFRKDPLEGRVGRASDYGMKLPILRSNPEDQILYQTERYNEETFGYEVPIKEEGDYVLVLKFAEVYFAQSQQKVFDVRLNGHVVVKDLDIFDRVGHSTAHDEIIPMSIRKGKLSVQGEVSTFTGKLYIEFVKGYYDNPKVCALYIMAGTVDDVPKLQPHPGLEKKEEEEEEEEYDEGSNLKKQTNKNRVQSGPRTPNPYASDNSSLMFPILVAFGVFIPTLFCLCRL
UniProt Q7L9L4: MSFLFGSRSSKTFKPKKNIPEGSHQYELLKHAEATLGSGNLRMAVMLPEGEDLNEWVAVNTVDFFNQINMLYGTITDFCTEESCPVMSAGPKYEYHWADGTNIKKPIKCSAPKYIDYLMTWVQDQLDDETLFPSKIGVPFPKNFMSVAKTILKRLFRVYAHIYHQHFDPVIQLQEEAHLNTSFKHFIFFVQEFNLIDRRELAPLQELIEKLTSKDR
UniProt O95297: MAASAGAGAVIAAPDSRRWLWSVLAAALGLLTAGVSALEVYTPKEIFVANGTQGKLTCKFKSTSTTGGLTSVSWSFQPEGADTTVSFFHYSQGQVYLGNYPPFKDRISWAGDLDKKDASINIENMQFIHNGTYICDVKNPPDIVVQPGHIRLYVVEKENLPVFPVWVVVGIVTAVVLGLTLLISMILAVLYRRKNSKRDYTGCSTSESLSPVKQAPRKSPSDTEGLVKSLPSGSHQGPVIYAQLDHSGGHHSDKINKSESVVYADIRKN
UniProt Q567V2: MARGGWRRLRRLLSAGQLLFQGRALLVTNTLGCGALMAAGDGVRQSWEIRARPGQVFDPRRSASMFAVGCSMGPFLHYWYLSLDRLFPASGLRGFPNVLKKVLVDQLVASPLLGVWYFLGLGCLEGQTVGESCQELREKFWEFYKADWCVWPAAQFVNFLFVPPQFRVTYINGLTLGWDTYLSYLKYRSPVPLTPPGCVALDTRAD
UniProt O95563: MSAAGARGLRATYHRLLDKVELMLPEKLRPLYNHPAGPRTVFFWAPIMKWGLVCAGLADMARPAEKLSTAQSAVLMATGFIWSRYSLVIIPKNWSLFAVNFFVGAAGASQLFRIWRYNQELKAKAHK
UniProt P34949: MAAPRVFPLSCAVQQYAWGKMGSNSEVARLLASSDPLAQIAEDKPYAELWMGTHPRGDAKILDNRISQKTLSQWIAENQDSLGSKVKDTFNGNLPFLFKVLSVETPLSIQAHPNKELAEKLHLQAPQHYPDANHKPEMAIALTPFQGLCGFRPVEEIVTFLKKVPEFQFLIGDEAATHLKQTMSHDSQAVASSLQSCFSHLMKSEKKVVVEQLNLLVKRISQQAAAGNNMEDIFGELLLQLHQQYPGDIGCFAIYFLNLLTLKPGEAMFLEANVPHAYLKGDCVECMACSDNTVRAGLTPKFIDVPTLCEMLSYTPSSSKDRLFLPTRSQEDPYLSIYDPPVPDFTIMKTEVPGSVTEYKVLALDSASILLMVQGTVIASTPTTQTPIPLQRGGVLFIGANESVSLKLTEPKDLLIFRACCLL
UniProt Q6IN84: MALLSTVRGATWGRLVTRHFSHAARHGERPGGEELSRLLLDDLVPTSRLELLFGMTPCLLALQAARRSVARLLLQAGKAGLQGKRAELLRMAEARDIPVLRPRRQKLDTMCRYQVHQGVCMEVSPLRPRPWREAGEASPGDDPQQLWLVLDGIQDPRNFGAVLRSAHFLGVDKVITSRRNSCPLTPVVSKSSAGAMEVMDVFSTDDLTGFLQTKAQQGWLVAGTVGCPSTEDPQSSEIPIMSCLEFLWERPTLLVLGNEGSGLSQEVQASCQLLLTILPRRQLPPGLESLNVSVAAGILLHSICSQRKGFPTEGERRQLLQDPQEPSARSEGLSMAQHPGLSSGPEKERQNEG

Compound: c1cn2cc(-c3ccc4cn[nH]c4c3)nc(Nc3ccc(N4CCOCC4)cc3)c2n1 [entospletinib]
Assay: log2 fold change, soluble protein after heating vs DMSO (PISA); higher = thermal stabilisation; K562 cells, 10 uM, 30 min; active = over 0.2 and 3.5 SD of the protein, either way, in both replicates (recomputed)
How it was run: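 Aliquots of K562 cells (2×10^6 cells/mL) treated with 10 μM compound for 30 min were heated for 3 min over 48°C-58°C. After pooling and extraction in PBS with 0.5% NP-40 at 4°C, soluble protein from a 21,000xg, 90 min spin was quantified by TMTpro 16plex LC-MS/MS with channel sums equalised. Thermal stability is expressed against control samples, from duplicates, as a log2 fold change.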

log2 fold change, inactive:
MRPL27 (UniProt Q9P0M9) 0.067
MLLT1 (UniProt Q03111) 0.056
MRPL54 (UniProt Q6P161) 0.134
MKRN3 (UniProt Q13064) 0.007
MRPL15 (UniProt Q9P015) 0.117
MRPL53 (UniProt Q96EL3) 0.063
MOCS2 (UniProt O96033) 0.009
MICAL2 (UniProt O94851) 0.077
MRPL21 (UniProt Q7Z2W9) 0.016
MRPL39 (UniProt Q9NYK5) 0.073
MLKL (UniProt Q8NB16) -0.112
MOCOS (UniProt Q96EN8) 0.093
MRPL52 (UniProt Q86TS9) 0.06
MOCS1 isoform 8 (UniProt Q9NZB8) 0.02
MMTAG2 (UniProt Q9BU76) -0.054
MOCS2 (UniProt O96007) 0.03
MLEC (UniProt Q14165) 0.011
MRPL40 (UniProt Q9NQ50) 0.047
MICALL1 (UniProt Q8N3F8) 0.012
MRPL17 (UniProt Q9NRX2) 0.026
MOB1B isoform 2 (UniProt Q7L9L4) 0.015
MRPL1 (UniProt Q9BYD6) 0.045
MPZL1 (UniProt O95297) 0.022
MRPL38 (UniProt Q96DV4) 0.092
MRPL22 (UniProt Q9NWU5) 0.071
MPV17L2 (UniProt Q567V2) 0.042
MPC2 (UniProt O95563) -0.033
MRAS (UniProt O14807) 0.107
MRPL14 (UniProt Q6P1L8) -0.003
MPI (UniProt P34949) -0.225
MRPL55 isoform 2 (UniProt Q7Z7F7) 0.109
MRM1 (UniProt Q6IN84) 0.094

Copied from the results shown for reference:
log2 fold change, inactive:
MPZL1 (UniProt O95297) 0.022
MRPL38 (UniProt Q96DV4) 0.092
MRPL22 (UniProt Q9NWU5) 0.071
MPV17L2 (UniProt Q567V2) 0.042
MPC2 (UniProt O95563) -0.033
MRAS (UniProt O14807) 0.107
MRPL14 (UniProt Q6P1L8) -0.003
MPI (UniProt P34949) -0.225
